Results on 1 molecule are retold here after paper PMC8104946.

This assay addresses T1, CTPS-HA (Drosophila) (UniProt Q9VUL1).
T1 sequence: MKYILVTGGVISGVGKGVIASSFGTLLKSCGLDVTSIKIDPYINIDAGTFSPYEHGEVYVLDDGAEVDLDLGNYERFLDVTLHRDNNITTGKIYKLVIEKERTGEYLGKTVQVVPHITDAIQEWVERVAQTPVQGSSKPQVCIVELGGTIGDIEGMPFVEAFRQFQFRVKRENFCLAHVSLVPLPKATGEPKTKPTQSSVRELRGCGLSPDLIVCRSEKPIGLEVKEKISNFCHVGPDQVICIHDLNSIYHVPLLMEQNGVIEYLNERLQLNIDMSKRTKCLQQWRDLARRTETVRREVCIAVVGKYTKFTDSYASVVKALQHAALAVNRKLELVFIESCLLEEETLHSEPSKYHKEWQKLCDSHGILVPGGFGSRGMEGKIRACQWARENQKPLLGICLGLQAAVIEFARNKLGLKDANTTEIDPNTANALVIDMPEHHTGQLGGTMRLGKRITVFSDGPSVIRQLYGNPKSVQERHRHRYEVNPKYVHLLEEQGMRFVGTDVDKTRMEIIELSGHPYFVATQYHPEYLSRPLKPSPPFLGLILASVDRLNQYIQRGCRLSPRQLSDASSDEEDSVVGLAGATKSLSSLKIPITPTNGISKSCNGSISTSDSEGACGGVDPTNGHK
The assay can be described thus: co-IP; S2 cells 24 hours after transfection with CTPS-HA-T2A-Catsup-V5 or CTPS-HA-T2A-Pdcd4-V5; lysate on anti-HA magnetic beads or IgG bound Protein A/G magnetic beads overnight at 4 °C; blot with anti-V5.

No constants are given. Whether binding was seen depends on the method and setting. Binding seen in cells or lysates may run through a third protein. Some binding calls cover weakened binding; strength is not graded here. Tags and fused reporters may be left off the sequences shown.

B1: Catsup-V5 (protein, UniProt Q9V3A4 1-449)
chain: MAKQVADYQCSKLQLYQKLALVVILGAVLFSLPALCAGQGNPSFKYSREANENFDPQKAPRAEHHHHHDHDHDHGHHHHGHDHDHDHDHGHDHGHHHHGHDHDHDHDHGHHHHGHDERHTKAKPDLDMSTIWLHSIGSTLLISAAPFVLLYIIPLDNSEAMKPRLKVLLAFASGGLLGDAFLHLIPHATHPHSHGEHGHDHGHDHHHHHDGEEHEHGHSHDMSIGLWVLGGIIAFLSVEKLVRILKGGHGGHGHSHGAPKPKPVPAKKKSSDKEDSGDGDKPAKPAKIKSKKPEAEPEGEVEISGYLNLAADFAHNFTDGLAIGASYLAGNSIGIVTTITILLHEVPHEIGDFAILIKSGCSRRKAMLLQLVTALGALAGTALALLGAGGGDGSAPWVLPFTAGGFIYIATVSVLPELLEESTKLKQSLKEIFALLTGVALMIVIAKFE
On to B1, for which the binding entry is “binds”.
